Laboratory results from US10087226B2, “Chimeric peptide that interacts with cell membrane gangliosides” (Universite D'Aix-Marseille, priority 2014, dated 2018).
Part of at least one peptide drawing is inferred or uncertain, most often the ends. Ends that are not written are not given here.

Experiments:
[1] = Lipid monolayer assay, GD3 monolayer; type: binding; details: peptide 10 μM in aqueous subphase
[2] = Lipid monolayer assay, GD1a monolayer; type: binding; details: peptide 10 μM in aqueous subphase
[3] = Lipid monolayer assay, mixed GM1/cholesterol monolayers; type: binding
[4] = test system: SH-SY5Y cells; assay: Calcium measurements, amyloid pore formation induced by α-synuclein; type: cell-based, human; details: α-synuclein 220 nM, peptide 220 nM; FLUO4-AM
[5] = Lipid monolayer assay, neutral glycolipids; type: binding; details: conditions as FIG. 1A
[6] = Lipid monolayer assay (Langmuir film balance), GM1 monolayer; type: binding
Protocol: Peptide-cholesterol interactions were studied with the Langmuir film balance technique using a Kibron microtensiometer as previously described (Fantini and Yahi, 2011a).
In this experiment, a monolayer of ganglioside GM1 was prepared at the air-water interface and the peptide was injected in the aqueous subphase. The interaction of the peptide with the ganglioside was evidenced by an increase in the surface pressure of the monolayer, which was followed in real-time with a platinum probe (see Thakur et al, 2009 for a full description of the technique and its application to amyloid proteins). […] Then single mutants were assayed to identify which of the two His is actually critical for GM1 recognition. […] In this model, His-13 interacted with one GM1, and His-14 with the second one. Clearly, the cooperation between both GM1 molecules allowed an optimal interaction with the Aβ5-16 peptide driven by histidine residues. Conversely, because it is devoid of these histidine residues, the glycolipid-binding domain of α-synuclein (α-syn34-45) has a marked preference for ganglioside GM3 instead of GM1.

[7] = test system: SH-SY5Y cells; assay: Calcium measurements, amyloid pore formation induced by Aβ1-42; type: cell-based, human; details: Aβ1-42 220 nM, peptide 220 nM (equimolar), Fluo-4 AM fluorescence
Protocol: A. In a first experiment, SH-SY5Y cells were treated with Aβ1-42peptide (220 nM), and Ca^2+ dependent fluorescence was analyzed (top curve). In a second series of experiments, Aβ1-42 and the chimeric α-syn34-45/HH peptide (both 220 nM) were mixed extemporaneously directly injected onto the cells (C1 and C2 curves corresponding to two separate experiments). The C3 curve corresponds to the calcium response induced by the chimeric peptide alone. Results are expressed as mean±SD (n=100). In panel B, the same colors were used but the chimeric peptide was replaced by the wild-type α-syn34-45 peptide.
A. SH-SY5Y cells were treated with Aβ1-42 peptide (220 nM), and Ca^2+ dependent fluorescence was analyze. […] In absence of the chimeric peptide (− Pep Chim), amyloid pore formation induced by the Aβ1-42 peptide was evidenced by an increase of Ca^2+ fluorescence inside the cells. […] Warmer colors correspond to higher fluorescence (left scale).
Cells were plated in 35 mm culture dishes, grown during 72 h and loaded with 5 μM Fluo-4 AM (Invitrogen-Life Technologies, Saint Aubin, France) for 30 min in the dark, washed three times with HBSS (Gibco-Life Technologies, Saint-Aubin, France), and incubated for 20 min at 37° C. […] Fluorescence emission at 525 nm was imaged by a digital camera CDD (ORCA-ER Hamanatsu, Japan) after fluorescence excitation at 490 nm. […]

[8] = Lipid monolayer assay, GM4 monolayer; type: binding; details: peptide 10 μM in aqueous subphase
[9] = Lipid monolayer assay, mixed GM1/phosphatidylcholine monolayers; type: binding; details: 1:1, mol:mol; compared with GM1 alone
[10] = Lipid monolayer assay, GT1b monolayer; type: binding; details: peptide 10 μM in aqueous subphase
[11] = Lipid monolayer assay, GM3 monolayer; type: binding
[12] = ganglioside monolayer, peptide 10 μM in aqueous subphase

Sequence: KEGVLYVGHHTK [α-syn34-45/HH, KEGVLYVGHHTK]
- Ganglioside specificity: critical pressure of insertion, GD3 [1]: +++ ((+++) a critical pressure of insertion >25 mN · m^−1)
- Ganglioside specificity: critical pressure of insertion, GD1a [2]: +++ ((+++) a critical pressure of insertion >25 mN · m^−1)
- kinetics of interaction with mixed GM1:cholesterol monolayer ([3]; 1:1, mol:mol, compared with GM1 alone): cholesterol considerably accelerated the interaction
- critical pressure of insertion (πc), mixed GM1/cholesterol monolayers ([3]; FIG. 4C): 37.5 mN·m^−1
- effect on Ca^2+ fluxes induced by α-synuclein [4]: totally abrogated the Ca^2+ fluxes
- interaction with neutral glycolipids (GalCer, LacCer, asialo-GM1) [5]: reacted very poorly
- Ganglioside specificity: critical pressure of insertion, GM1 [6, 12]: +++ ((+++) a critical pressure of insertion >25 mN · m^−1)
- critical pressure of insertion (πc), GM1 monolayers ([6]; monolayers at various initial surface pressures, x-axis intercept (FIG. 2D, 4C)): 37.5 mN·m^−1
- interaction with GM1 monolayer (surface pressure increase) ([6]; peptide 10 μM in subphase, initial surface pressure 17.5 mN·m^−1): marked increase of affinity for GM1
- effect on elevation of intracellular Ca^2+ levels induced by Aβ1-42 [7]: no detectable increase of Ca^2+ fluorescence
- effect on elevation of intracellular Ca^2+ levels induced by Aβ1-42 ([7]; listed as α-syn/HH): significantly reduced
- Ganglioside specificity: critical pressure of insertion, GM4 [8]: +++ ((+++) a critical pressure of insertion >25 mN · m^−1)
- kinetics of interaction with mixed GM1:phosphatidylcholine monolayer [9]: phosphatidylcholine rather tended to slow down the reaction
- Ganglioside specificity: critical pressure of insertion, GT1b [10]: +++ ((+++) a critical pressure of insertion >25 mN · m^−1)
- Ganglioside specificity: critical pressure of insertion, GM3 [11, 12]: +++ ((+++) a critical pressure of insertion >25 mN · m^−1)
- critical pressure of insertion (πc), GM3 monolayers ([11]; monolayers at various initial surface pressures, x-axis intercept (FIG. 2B)): 37.5 mN·m^−1
- interaction with GM3 monolayer (surface pressure increase, kinetics) ([11]; peptide in subphase, initial surface pressure 17.5 mN·m^−1): exactly the same as the wild-type α-syn34-45 peptide
